Data from the supplement of paper PMC10849652.
This is one part of the list.

Chains of the proteins cited; added tags and fusions are not shown. Lines headed by an entry give the natural chain unless they say otherwise; changes in a name come on top.
UniProt P15559, whole entry, looked up: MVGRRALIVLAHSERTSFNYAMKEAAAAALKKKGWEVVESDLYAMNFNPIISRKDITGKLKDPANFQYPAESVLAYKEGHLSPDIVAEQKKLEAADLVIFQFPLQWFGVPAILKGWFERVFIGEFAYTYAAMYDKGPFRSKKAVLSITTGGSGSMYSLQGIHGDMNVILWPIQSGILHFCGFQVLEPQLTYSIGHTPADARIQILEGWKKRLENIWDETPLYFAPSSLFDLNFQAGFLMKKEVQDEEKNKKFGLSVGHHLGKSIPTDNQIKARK
UniProt P0C024: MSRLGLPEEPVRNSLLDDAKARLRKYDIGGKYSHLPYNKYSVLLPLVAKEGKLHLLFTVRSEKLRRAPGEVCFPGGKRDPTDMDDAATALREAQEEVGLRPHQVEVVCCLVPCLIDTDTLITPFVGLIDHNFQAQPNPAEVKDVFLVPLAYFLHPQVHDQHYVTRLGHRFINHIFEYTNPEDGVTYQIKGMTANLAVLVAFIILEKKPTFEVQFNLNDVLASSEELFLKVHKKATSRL
UniProt Q96D46: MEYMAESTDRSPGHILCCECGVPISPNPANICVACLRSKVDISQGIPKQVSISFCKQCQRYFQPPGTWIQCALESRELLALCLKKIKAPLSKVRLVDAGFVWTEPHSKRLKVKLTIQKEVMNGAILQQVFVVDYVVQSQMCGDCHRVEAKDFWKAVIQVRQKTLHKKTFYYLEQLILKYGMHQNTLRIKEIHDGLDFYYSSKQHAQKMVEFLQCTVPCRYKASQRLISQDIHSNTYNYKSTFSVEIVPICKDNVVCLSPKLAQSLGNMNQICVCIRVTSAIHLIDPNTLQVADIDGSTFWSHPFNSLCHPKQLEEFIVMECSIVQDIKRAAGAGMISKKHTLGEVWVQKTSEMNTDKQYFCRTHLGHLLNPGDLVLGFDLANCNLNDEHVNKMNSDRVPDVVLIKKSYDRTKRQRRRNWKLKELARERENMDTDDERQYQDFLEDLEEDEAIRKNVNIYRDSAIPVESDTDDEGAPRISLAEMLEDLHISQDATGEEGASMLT
UniProt Q8WVJ2: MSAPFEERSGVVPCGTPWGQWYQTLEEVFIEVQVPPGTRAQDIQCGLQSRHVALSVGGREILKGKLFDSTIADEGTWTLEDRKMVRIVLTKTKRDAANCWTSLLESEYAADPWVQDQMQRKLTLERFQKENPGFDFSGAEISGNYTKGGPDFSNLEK
UniProt O95989: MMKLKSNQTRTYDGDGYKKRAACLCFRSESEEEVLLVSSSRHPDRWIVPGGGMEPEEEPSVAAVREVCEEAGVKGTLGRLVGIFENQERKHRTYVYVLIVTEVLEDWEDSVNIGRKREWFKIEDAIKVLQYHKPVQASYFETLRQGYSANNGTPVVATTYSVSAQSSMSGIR
UniProt Q8NC60: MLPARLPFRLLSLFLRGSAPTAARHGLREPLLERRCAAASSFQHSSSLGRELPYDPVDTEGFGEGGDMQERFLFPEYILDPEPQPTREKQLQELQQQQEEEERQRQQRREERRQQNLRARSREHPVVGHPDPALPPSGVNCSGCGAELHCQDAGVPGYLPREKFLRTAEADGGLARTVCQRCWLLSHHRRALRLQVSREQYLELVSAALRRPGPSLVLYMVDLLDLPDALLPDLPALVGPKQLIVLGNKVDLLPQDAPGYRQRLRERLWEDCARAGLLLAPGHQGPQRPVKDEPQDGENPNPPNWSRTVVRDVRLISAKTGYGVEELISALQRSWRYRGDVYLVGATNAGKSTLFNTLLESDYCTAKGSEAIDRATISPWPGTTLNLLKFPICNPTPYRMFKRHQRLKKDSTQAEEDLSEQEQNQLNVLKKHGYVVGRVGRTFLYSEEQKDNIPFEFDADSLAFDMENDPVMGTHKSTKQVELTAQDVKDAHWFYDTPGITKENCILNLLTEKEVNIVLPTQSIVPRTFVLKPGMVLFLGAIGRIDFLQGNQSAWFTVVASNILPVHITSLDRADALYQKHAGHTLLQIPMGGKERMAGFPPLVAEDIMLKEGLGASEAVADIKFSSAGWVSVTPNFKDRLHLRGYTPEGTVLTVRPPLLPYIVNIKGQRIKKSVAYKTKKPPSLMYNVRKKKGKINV
UniProt Q96RS6: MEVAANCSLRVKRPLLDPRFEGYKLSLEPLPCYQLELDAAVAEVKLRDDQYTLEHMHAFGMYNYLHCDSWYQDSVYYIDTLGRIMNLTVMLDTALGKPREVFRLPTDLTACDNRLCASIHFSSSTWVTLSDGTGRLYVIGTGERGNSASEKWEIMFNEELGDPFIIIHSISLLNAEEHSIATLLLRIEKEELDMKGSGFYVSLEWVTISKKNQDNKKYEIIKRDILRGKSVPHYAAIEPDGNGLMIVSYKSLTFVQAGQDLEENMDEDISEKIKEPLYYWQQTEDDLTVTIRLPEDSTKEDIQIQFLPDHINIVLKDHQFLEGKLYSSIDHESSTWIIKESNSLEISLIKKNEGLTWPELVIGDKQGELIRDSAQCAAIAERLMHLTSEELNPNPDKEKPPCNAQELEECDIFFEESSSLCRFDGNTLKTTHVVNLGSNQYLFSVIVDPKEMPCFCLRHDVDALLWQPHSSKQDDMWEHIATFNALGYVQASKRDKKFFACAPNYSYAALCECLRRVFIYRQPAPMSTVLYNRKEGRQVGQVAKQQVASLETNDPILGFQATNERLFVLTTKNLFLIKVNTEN
UniProt Q9Y5A7: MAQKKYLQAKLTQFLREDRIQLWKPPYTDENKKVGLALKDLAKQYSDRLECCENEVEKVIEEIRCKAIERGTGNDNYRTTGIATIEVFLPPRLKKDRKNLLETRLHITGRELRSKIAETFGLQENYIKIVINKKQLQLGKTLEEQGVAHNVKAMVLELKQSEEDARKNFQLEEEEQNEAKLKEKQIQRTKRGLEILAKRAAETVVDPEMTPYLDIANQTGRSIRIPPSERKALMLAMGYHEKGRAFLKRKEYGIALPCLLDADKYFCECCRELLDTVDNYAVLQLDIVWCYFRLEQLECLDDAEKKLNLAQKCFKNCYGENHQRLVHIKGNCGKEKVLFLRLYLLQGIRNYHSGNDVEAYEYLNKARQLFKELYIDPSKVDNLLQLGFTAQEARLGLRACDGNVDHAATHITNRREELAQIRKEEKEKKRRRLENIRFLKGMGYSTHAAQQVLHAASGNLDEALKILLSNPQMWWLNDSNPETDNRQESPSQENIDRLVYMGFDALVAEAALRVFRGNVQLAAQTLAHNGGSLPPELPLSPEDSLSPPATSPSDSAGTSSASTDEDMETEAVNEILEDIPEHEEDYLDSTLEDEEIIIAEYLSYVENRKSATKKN
UniProt P49116: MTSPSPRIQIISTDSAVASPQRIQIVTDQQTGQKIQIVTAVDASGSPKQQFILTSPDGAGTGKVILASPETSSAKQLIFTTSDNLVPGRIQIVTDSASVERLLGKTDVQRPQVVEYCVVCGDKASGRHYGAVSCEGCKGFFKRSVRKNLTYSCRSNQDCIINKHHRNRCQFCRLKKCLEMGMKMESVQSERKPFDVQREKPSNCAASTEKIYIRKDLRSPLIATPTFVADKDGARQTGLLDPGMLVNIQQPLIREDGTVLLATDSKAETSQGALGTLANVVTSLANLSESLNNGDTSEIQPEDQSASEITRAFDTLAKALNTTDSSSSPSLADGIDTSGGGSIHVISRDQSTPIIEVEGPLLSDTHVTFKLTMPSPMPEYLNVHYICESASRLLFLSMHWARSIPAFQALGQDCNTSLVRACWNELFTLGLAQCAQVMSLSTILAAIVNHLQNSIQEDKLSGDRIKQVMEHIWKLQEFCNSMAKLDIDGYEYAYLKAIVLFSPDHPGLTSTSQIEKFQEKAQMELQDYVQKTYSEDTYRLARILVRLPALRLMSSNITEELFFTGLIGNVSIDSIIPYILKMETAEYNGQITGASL

How the values were obtained:
Test in all cases: log2 fold change, soluble protein after heating vs DMSO (PISA); higher = thermal stabilisation; K562 lysate, 10 uM; active = over 0.2 and 3.5 SD of the protein, either way, in both replicates (recomputed)
[1] = compound: C1=CC=C(C=C1)[C@H](COC2=CC3=C(C=C2)NC(=O)N3)NC(=O)C4=CC=CN(C4=O)CC5=CC(=C(C=C5)F)F
How it was run: (§1)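 Values give the log-two fold change in thermal stability against solvent controls, from duplicates. Crude K562 extract at 1 mg/mL protein, made by dounce homogenisation in PBS pH 7.4 with 1 mM MgCl2, was treated with 10 μM compound for 30 min. After 3 min heating across 48°C-58°C, aliquots were pooled, adjusted to 0.5% NP-40 at 4°C and centrifuged at 21,000xg for 90 min. The supernatant was measured by TMTpro 16plex LC-MS/MS with channel sums equalised.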

[2] = compound: CC1=C(SC2=C1C(=N[C@H](C3=NN=C(N32)C)CC(=O)N)C4=CC=C(C=C4)Cl)C
How it was run: as §1

[3] = compound: CC1=C2C(=CC=C1)N=C(N(C2=O)C3=CC=CC=C3C)CN4C=NC5=C(N=CN=C54)N
How it was run: as §1

[4] = compound: Cc1sc2c(c1C)C(c1ccc(Cl)cc1)=N[C@@H](CC(=O)OC(C)(C)C)c1nnc(C)n1-2
How it was run: as §1

[5] = compound: c1ccc([C@@H]2C[C@H]2NC2CCNCC2)cc1
How it was run: as §1

Row | Target | log2 fold change [1] | log2 fold change [2] | log2 fold change [3] | log2 fold change [4] | log2 fold change [5]
1 | NQO1 (UniProt P15559) | active: 0.433 | inactive: 0.025 | inactive: 0.223 | inactive: -0.008 | inactive: -0.016
2 | NUDT7 (UniProt P0C024) | inactive: 0.135 | inactive: 0.15 | inactive: 0.05 | inactive: 0.157 | inactive: 0.025
3 | NMD3 (UniProt Q96D46) | inactive: 0.003 | inactive: -0.012 | inactive: -0.003 | inactive: 0.013 | inactive: -0.028
4 | NUDCD2 (UniProt Q8WVJ2) | inactive: 0.034 | inactive: -0.006 | inactive: 0.004 | inactive: -0.011 | inactive: -0.084
5 | NUDT3 (UniProt O95989) | inactive: -0.007 | inactive: -0.055 | inactive: -0.001 | inactive: 0.018 | inactive: -0.063
6 | NOA1 (UniProt Q8NC60) | inactive: -0.087 | inactive: 0.099 | inactive: 0.023 | inactive: -0.014 | inactive: -0.07
7 | NUDCD1 (UniProt Q96RS6) | inactive: -0.015 | inactive: -0.005 | inactive: -0.008 | inactive: -0.001 | inactive: -0.023
8 | NUB1 (UniProt Q9Y5A7) | inactive: -0.011 | inactive: 0.029 | inactive: 0.025 | inactive: 0.013 | inactive: 0.039
9 | NR2C2 isoform 2 (UniProt P49116) | inactive: -0.078 | inactive: -0.08 | inactive: -0.04 | inactive: 0.243 | inactive: 0.047

Exported as comma-separated lines: entries from further up.
Row,Target,log2 fold change [1],log2 fold change [2],log2 fold change [3],log2 fold change [4],log2 fold change [5]
5,NUDT3 (UniProt O95989),inactive: -0.007,inactive: -0.055,inactive: -0.001,inactive: 0.018,inactive: -0.063
6,NOA1 (UniProt Q8NC60),inactive: -0.087,inactive: 0.099,inactive: 0.023,inactive: -0.014,inactive: -0.07
